Reference: PubChem BioAssay AID1259254 (NCATS, 2017)

Aim: 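Gene knock-downs that lead to re-replication, shown by excess G2 DNA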 (primary screen)
Cells: human HCT116 colorectal cancer cells
Reagent: single siRNA against human genes
Time to read-out: 3 days
Measured: 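Nuclei stained with Hoechst and imaged; cell-cycle phase assigned by DNA content; G2 share scaled per plate, non-targeting siRNA 0%, GMNN siRNA 100%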
Reading the numbers: G2 robust z-score and G2 cells, % of GMNN control: higher = more G2 cells, more excess DNA replication; raw share of cells in G2: higher = larger share of cells with G2 DNA content
Rule for the call: 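Active siRNAs have a G2 robust z of 5 or more median absolute deviations over the median, which in these data means about 38% or higher of GMNN control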
Shown is one part, drawn at random, of about 59,000 deposited reagents. Of all reagents, about 1,550 (2.6%) are marked active. 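G2 share is only a proxy for re-replication; each gene was hit by three separate siRNAs, and active genes were retested.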 The raw values are shown without normalisation. The numbers tell different reagents against one gene apart. Reagent sequences are not shown. Not stated in the record: the amount of reagent.

no.	Gene	siRNA no.	G2 robust z-score	G2 cells, % of GMNN control	raw share of cells in G2 (%)	Call
1	SENP1 (GeneID 29843)	1	-0.977	-3.91	4.2	inactive
2	SENP1 (GeneID 29843)	2	-0.507	-0.602	4.69	inactive
3	SENP1 (GeneID 29843)	3	-1.1	-4.79	2.12	inactive
4	PFKFB4 (GeneID 5210)	1	-0.346	0.534	4.97	inactive
5	PFKFB4 (GeneID 5210)	2	-0.843	-2.97	3.41	inactive
6	PFKFB4 (GeneID 5210)	3	1.36	12.6	7.28	inactive
7	ZNF101P2 (GeneID 730190)	1	0.251	4.73	5.45	inactive
8	ZNF101P2 (GeneID 730190)	2	1.8	15.6	9.36	inactive
9	ZNF101P2 (GeneID 730190)	3	3.61	28.4	14.8	inactive
10	ZNF486 (GeneID 90649)	1	-0.393	0.2	3.16	inactive
11	ZNF486 (GeneID 90649)	2	0.577	7.03	5.61	inactive
12	ZNF486 (GeneID 90649)	3	-0.665	-1.71	2.93	inactive
13	PTH1R (GeneID 5745)	1	-0.386	0.255	5.93	inactive
14	PTH1R (GeneID 5745)	2	-0.331	0.641	4.74	inactive
15	PTH1R (GeneID 5745)	3	-0.66	-1.68	2.75	inactive
16	PPIAP72 (GeneID 256374)	1	-0.565	-1.01	2.79	inactive
17	PPIAP72 (GeneID 256374)	2	-0.839	-2.93	2.26	inactive
18	PPIAP72 (GeneID 256374)	3	-0.395	0.186	3.65	inactive
19	MYRFL (GeneID 196446)	1	-0.21	1.49	4.14	inactive
20	MYRFL (GeneID 196446)	2	-0.49	-0.483	2.8	inactive
21	MYRFL (GeneID 196446)	3	-0.578	-1.1	2.41	inactive
22	IRF8 (GeneID 3394)	1	0.0899	3.6	6.99	inactive
23	IRF8 (GeneID 3394)	2	-0.0794	2.41	4.97	inactive
24	IRF8 (GeneID 3394)	3	1.97	16.8	10.1	inactive
25	LTA (GeneID 4049)	1	-0.0493	2.62	6.37	inactive
26	LTA (GeneID 4049)	2	-0.63	-1.47	4.89	inactive
27	LTA (GeneID 4049)	3	1.84	15.9	8.44	inactive
28	ZNF562 (GeneID 54811)	1	-0.477	-0.387	2.66	inactive
29	ZNF562 (GeneID 54811)	2	0.0192	3.1	7.31	inactive
30	ZNF562 (GeneID 54811)	3	1.13	10.9	7.07	inactive
31	TMX1 (GeneID 81542)	1	2.48	20.4	12.3	inactive
32	TMX1 (GeneID 81542)	2	1.26	11.8	8.48	inactive
33	TMX1 (GeneID 81542)	3	0.491	6.42	8.1	inactive
34	CRNDE (GeneID 643911)	1	2.05	17.4	9.73	inactive
35	CRNDE (GeneID 643911)	2	0.889	9.22	7.42	inactive
36	CRNDE (GeneID 643911)	3	0.497	6.47	7.41	inactive
37	CRNDE (GeneID 643911)	4	0.135	3.92	5.13	inactive
38	CRNDE (GeneID 643911)	5	-0.818	-2.79	2.27	inactive
39	CRNDE (GeneID 643911)	6	0.643	7.49	5.33	inactive
40	PLEKHM1 (GeneID 9842)	1	-0.532	-0.777	4.98	inactive
41	PLEKHM1 (GeneID 9842)	2	-0.737	-2.22	3.02	inactive
42	PLEKHM1 (GeneID 9842)	3	0.0963	3.64	4.73	inactive
43	HS1BP3 (GeneID 64342)	1	0.211	4.45	4.36	inactive
44	HS1BP3 (GeneID 64342)	2	2.27	19	14.5	inactive
45	HS1BP3 (GeneID 64342)	3	-0.662	-1.69	3.1	inactive
46	SAR1AP1 (GeneID 646260)	1	-0.611	-1.33	2.62	inactive
47	SAR1AP1 (GeneID 646260)	2	-0.452	-0.212	3.7	inactive
48	SAR1AP1 (GeneID 646260)	3	0.0955	3.64	4.57	inactive
49	C2CD5 (GeneID 9847)	1	-1.69	-8.94	1.29	inactive
50	C2CD5 (GeneID 9847)	2	-0.548	-0.885	3.57	inactive
51	C2CD5 (GeneID 9847)	3	-0.284	0.973	3.76	inactive
52	B3GNT4 (GeneID 79369)	1	-0.488	-0.468	5.45	inactive
53	B3GNT4 (GeneID 79369)	2	1.03	10.2	7.96	inactive
54	B3GNT4 (GeneID 79369)	3	2.97	23.9	12.9	inactive
55	SCLY (GeneID 51540)	1	-0.529	-0.751	3.51	inactive
56	SCLY (GeneID 51540)	2	-0.0647	2.51	5.17	inactive
57	SCLY (GeneID 51540)	3	-0.345	0.538	6.2	inactive
58	CCDC92 (GeneID 80212)	1	-0.872	-3.17	1.51	inactive
59	CCDC92 (GeneID 80212)	2	0.428	5.98	6.93	inactive
60	CCDC92 (GeneID 80212)	3	-0.409	0.0917	4.34	inactive
61	HEXIM2 (GeneID 124790)	1	-0.487	-0.462	3.91	inactive
62	HEXIM2 (GeneID 124790)	2	0.225	4.55	4.69	inactive
63	HEXIM2 (GeneID 124790)	3	0.368	5.56	3.44	inactive
64	KRT6B (GeneID 3854)	1	-0.93	-3.58	3.45	inactive
65	KRT6B (GeneID 3854)	2	-1.04	-4.38	2.49	inactive
66	KRT6B (GeneID 3854)	3	-0.286	0.959	3.7	inactive
67	FER1L5 (GeneID 90342)	1	0.434	6.02	6.64	inactive
68	FER1L5 (GeneID 90342)	2	-0.0186	2.84	3.89	inactive
69	FER1L5 (GeneID 90342)	3	0.493	6.44	4.96	inactive

Entries listed so far whose target name starts with Z or z (9):
Gene	siRNA no.	G2 robust z-score	G2 cells, % of GMNN control	raw share of cells in G2 (%)	Call
ZNF101P2 (GeneID 730190)	1	0.251	4.73	5.45	inactive
ZNF101P2 (GeneID 730190)	2	1.8	15.6	9.36	inactive
ZNF101P2 (GeneID 730190)	3	3.61	28.4	14.8	inactive
ZNF486 (GeneID 90649)	1	-0.393	0.2	3.16	inactive
ZNF486 (GeneID 90649)	2	0.577	7.03	5.61	inactive
ZNF486 (GeneID 90649)	3	-0.665	-1.71	2.93	inactive
ZNF562 (GeneID 54811)	1	-0.477	-0.387	2.66	inactive
ZNF562 (GeneID 54811)	2	0.0192	3.1	7.31	inactive
ZNF562 (GeneID 54811)	3	1.13	10.9	7.07	inactive
